This experiment is described as follows: qHTS Assay for Lipid Storage Modulators in Drosophila S3 Cells.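 For cell number change: cells counted by Cell Tracker Red CMTPX staining in the red channel.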 Particulars: BODIPY lipid droplet fluorescence, 18-24 h; for cell number change: measured here: cell count max response, cells fed with added oleic acid. In a few lines:
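Drosophila S3 cells loaded with oleic acid (400 uM, as added) and compounds at several concentrations; lipid droplets imaged by 488-nm laser-scanning cytometry, 500–530 nm intensity and object ratio to cell channel. Percent activity normalized to 20 uM Triacsin C.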
(In general: In qHTS, concentration-response curves come from the screen itself.)

Setting [1] is: measured here: cell number channel AC50, cells fed with added oleic acid.
Setting [2] is: measured here: lipid fluorescence (Fed channel) AC50, cells fed with added oleic acid.

The list shows a part of the results. The main result of the screen is listed elsewhere. These columns were measured beside it and carry no call. The list favours compounds with an active or inconclusive main result. Potencies come from curve fits of mixed quality, noted in brackets.

Broadly, the AC50 is the midpoint of the concentration-response curve, whichever way the signal moves. The low end stands for activity at low concentration, the high end for activity only at high concentration. As to `CCCn1c(=O)[nH]c(=O)c2c1nc(-c1ccc(OC)c(Br)c1)n2CCOC`, the cell number change was found to be 115%. For the same molecule, under setting [1], the half-maximal activity concentration (AC50) was 8.2 µM [rising, partial curve]. Further, under setting [2], the AC50 is 6.51 µM [rising, partial curve, poor fit]. As to `O=C(Nc1cc(S(=O)(=O)N2CCOCC2)ccc1OCC(F)(F)F)C1=COCCO1`, the AC50 under setting [1] was 2.91 µM [rising, partial curve, poor fit]. For the molecule `COc1ccc([N+](=O)[O-])cc1NCC(=O)c1ccc(C)cc1`, the AC50 under setting [2] is 0.58 µM [falling, single point].

In the case of `CCN(CC)CCCn1c(C)cc2c(c1=O)C(c1cccc(Cl)c1)C(C#N)=C(N)O2` (stereo unspecified), the cell number change was -9.16%. Further, the AC50 under setting [2] is 4.11 µM [falling, partial curve, poor fit]. In the case of `CC(=O)Nc1ccc(S(=O)(=O)N2CCC(NC(=O)c3ccco3)CC2)cc1`, the cell number change is 31.2%. For the same molecule, the AC50 under setting [1] is 29.1 µM [rising, single point]. For the molecule `CCC(Oc1ccc(Br)cc1)C(=O)N1CCN(c2ncccn2)CC1` (stereo unspecified), the cell number change stood at 68.3%. The AC50 under setting [1] is 25.9 µM [rising, partial curve, poor fit]. Further, the AC50 under setting [2] was 29.1 µM [rising, partial curve].

In the case of `CCOC(=O)c1cc(NC(=O)CCC(=O)O)ccc1N1CCCCC1`, the cell number change was -63.3%. Moreover, under setting [1], the AC50 was 4.61 µM [falling, partial curve]. For the same molecule, the AC50 under setting [2] was 25.9 µM [falling, partial curve]. In the case of `CN(C)/C=C(/C(=O)c1ccc(F)cc1)S(=O)(=O)c1ccc(F)cc1`, the cell number change was -3.38%. Also, the AC50 under setting [2] was 29.1 µM [rising, single point]. For `CN(C(=O)CN1C(=O)/C(=C/c2ccccc2Cl)SC1=S)C1CCS(=O)(=O)C1` (stereo unspecified), the cell number change was -15.3%. Moreover, under setting [2], the AC50 was 6.51 µM [falling, partial curve, poor fit]. Take `COc1ccc(C2=C/C(=C\c3cccc(OC(C)=O)c3)C(=O)O2)cc1`: the cell number change amounted to 6.35%. For the molecule `Cc1ccc(NC(=O)CCS(=O)(=O)c2cccc3nonc23)cc1Cl`, the cell number change stood at 23.9%. Take `COc1ccc(C(=O)Cc2cnn(-c3ccccc3)c2)c(O)c1`: the cell number change turned out to be 21.7%. Also, the AC50 under setting [2] is 18.4 µM [rising, partial curve]. `CCCCc1ccc(NC(=O)c2ccc(N(C)S(C)(=O)=O)cc2)cc1`: the cell number change is -3.27%. As for `COc1ccccc1C(=O)COC(=O)CNC(=O)c1ccc(Br)o1`, the cell number change came to 7.48%. In addition, the AC50 under setting [2] was 0.82 µM [rising, full curve]. On to `O=C(NCc1ccco1)c1ccccc1NS(=O)(=O)c1ccc(Cl)s1`, for which the cell number change is -46.9%. Besides, the AC50 under setting [1] is 29.1 µM [falling, single point]. Take `COc1ccc(CN(C)C(=O)c2ccc(OCC(=O)Nc3cccc(C(F)(F)F)c3)c(OC)c2)c(OC)c1`: the cell number change came out at 24.6%. Also, the AC50 under setting [1] is 1.84 µM [rising, partial curve, poor fit]. In addition, the AC50 under setting [2] is 1.84 µM [rising, partial curve].

With `CCOC(=O)c1sc2ncnc(NCC(c3cccs3)N(C)C)c2c1C` (stereo unspecified), the cell number change came out at 51.6%. Moreover, the AC50 under setting [1] was 23.1 µM [rising, partial curve, poor fit].

On to `C=CCn1c(C(C)(C)C)nc2ccccc21`, for which the cell number change was -12%. Besides, under setting [2], the AC50 was 6.51 µM [falling, single point].

For `CCn1c2ccccc2c2cc(CC(N)=O)ccc21`, the cell number change amounted to 27.6%. Under setting [2], the concentration at half-maximal activity (AC50) was 0.82 µM [rising, full curve, poor fit].

For `CCOC(=O)CCNC(=O)Nc1ccc2nc(C)n(Cc3ccc(Cl)cc3)c(=O)c2c1`, the cell number change was -4.62%. Further, the AC50 under setting [2] is 0.517 µM [rising, full curve, poor fit]. Consider `CCOC(=O)C1=NN(C(C)=O)C2C(=O)N(CC)C(=O)C12` (stereo unspecified), for which the cell number change is -14.6%. Consider `O=C(Cn1c(=S)[nH]c2ccccc21)c1ccccc1`, for which the cell number change is 77.1%. For the same molecule, the AC50 under setting [1] is 20.6 µM [rising, single point]. In addition, under setting [2], the AC50 is 23.1 µM [rising, partial curve].

On to `COc1ccc(-c2cc(CC3(C(=O)O)CCN(C(=O)OC(C)(C)C)CC3)on2)c(OC)c1`, for which the cell number change was determined as 46%. For the same molecule, the AC50 under setting [1] was 20.6 µM [rising, partial curve]. Under setting [2], the AC50 is 0.164 µM [falling, full curve, poor fit]. As to `CC1CN(C(=O)COc2ccc3c(-c4ccccc4)cc(=O)oc3c2)CC(C)O1` (stereo unspecified), the cell number change was -10.1%. Further, the AC50 under setting [2] was 0.517 µM [falling, partial curve, poor fit]. `CC12CC3CC(C)(C1)CC(C(=O)N1CCN(C(=O)C4CCCO4)CC1)(C3)C2` (stereo unspecified): the cell number change is -1.66%. The AC50 under setting [2] is 29.1 µM [rising, single point]. On to `O=C(c1ccc(Cl)c(S(=O)(=O)N2CCc3ccccc3C2)c1)N1CCN(c2ccccc2)CC1`, for which the cell number change was -17.7%. The AC50 under setting [2] is 6.51 µM [rising, single point]. Consider `CC(=O)Nc1ccc(C(=O)N/N=C/C2CC3C=CC2C3)cc1` (stereo unspecified), for which the cell number change was -35.8%. The AC50 under setting [1] was 0.291 µM [falling, full curve, poor fit]. Besides, the AC50 under setting [2] is 6.51 µM [falling, partial curve]. In the case of `CCC(C)N1CC(=O)N2C(c3ccc(OC)cc3OC)c3[nH]c4ccccc4c3C[C@H]2C1=O` (stereo partly specified), the cell number change is -6.94%.

`O=C(NNC(=O)c1cc(-c2ccc(Cl)cc2Cl)nc2ccccc12)Nc1ccccc1`: the cell number change is -2.21%. With `COc1ccc(Cl)cc1C1=CC(=O)C[C@H](c2ccc(F)cc2)C1`, the cell number change came out at 8.99%. Further, the AC50 under setting [2] was 0.731 µM [rising, partial curve]. As for `Cc1ccc(C)c(Cn2nnc3c(=O)[nH]c(C4CCN(S(=O)(=O)c5ccc(S(=O)(=O)N(C)C)cc5)CC4)nc32)c1`, the cell number change was 21.7%. Further, the AC50 under setting [2] is 29.1 µM [rising, single point]. Take `OC(CN1C2=NCCCN2c2ccccc21)c1ccc(Cl)cc1` (stereo unspecified): the cell number change was 14.2%. Under setting [2], the AC50 is 0.58 µM [falling, partial curve]. On to `CC1=NN(Cc2c(C)nn(Cc3ccccc3)c2C)C(C)(C)C1`, for which the cell number change is -7.28%. For the same molecule, the AC50 under setting [2] is 0.411 µM [falling, partial curve, poor fit].

For `Cc1ccc(CN2C(=O)N/C(=C\c3cccn3-c3cccc(C(=O)O)c3)C2=O)cc1`, the cell number change is -5.29%. Moreover, the AC50 under setting [1] is 6.51 µM [falling, single point]. Further, the AC50 under setting [2] was 2.06 µM [falling, partial curve].

With `COc1ccc(NC(=O)CN(c2ccc(OC)c(Cl)c2)S(=O)(=O)c2ccccc2)c(OC)c1`, the cell number change worked out at 5.61%. In the case of `O=C(OCc1c(Cl)cccc1Cl)c1ccncc1`, the cell number change was -18.3%.

As to `COc1ccc(NC(=O)CNC(=O)c2nn(-c3ccc(OC)c(OC)c3)c(=O)c3ccccc23)c(OC)c1`, the cell number change came to 27.8%.
